PubChem BioAssay AID1224828, NIAID | 2016

Assay: 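Find genes required for NF-kappaB p65 moving into the nucleus after LPS in mouse macrophages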 (primary screen)
System: mouse RAW264.7 G9 macrophage reporter cells (GFP-p65, Tnf promoter-mCherry)
Reagent: siRNA pool against mouse genes, 100 nM
Time to read-out: 2 days siRNA transfection, then 40 min LPS before fixation
Conditions: LPS (Salmonella minnesota R595) at 10 ng/ml
Read-out: 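Imaged p65 nuclear translocation ratio, normalised to the plate median, converted to robust z-scores and averaged across two replicates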
Reading the numbers: p65 translocation robust z-score: higher = more nuclear NF-kappaB p65 after LPS than the plate median; nuclear/cytoplasmic p65 ratio: higher = more nuclear NF-kappaB p65
Rule for the call: 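Active if robust z is above 3.3 (negative regulators) or below -1.56, the Tlr4 control median (positive regulators); activity score 50 or more; control wells not called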
Meaning of the calls: active = hit (p65 shift raised or lowered); inactive = no clear change
In all, the deposit lists about 17,000 reagents; this is a random part of them. Over the whole deposit, 762 (4.5%) got an active call. 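Active calls include both raised and lowered p65 entry, mostly lowered; wells with fewer than 50 cells lack a z-score.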 Raw values vary from plate to plate and are shown uncorrected. A number with no mark means an inactive call. Reagent sequences are not shown.

no.	gene	p65 translocation robust z-score	nuclear/cytoplasmic p65 ratio, rep 1	nuclear/cytoplasmic p65 ratio, rep 2	low cell count flag
1	Foxm1 (forkhead box M1)	-0.17	1.36	1.4	enough cells to score
2	Itgal (integrin alpha L)	0.71	1.59	1.45	enough cells to score
3	Tbc1d8b (TBC1 domain family, member 8B)	-0.11	1.41	1.53	enough cells to score
4	Scp2	0.61	1.54	1.74	enough cells to score
5	Tmem161a (transmembrane protein 161A)	1.74	1.87	2.1	enough cells to score
6	Zfp629 (zinc finger protein 629)	-1.55	1.32	1.33	enough cells to score
7	Cacng6 (calcium channel, voltage-dependent, gamma subunit 6)	-1.14	1.45	1.57	enough cells to score
8	Usp4 (ubiquitin specific peptidase 4)	-0.13	1.51	1.47	enough cells to score
9	Krtap5-1 (keratin associated protein 5-1)	-0.28	1.41	1.48	enough cells to score
10	Epor (erythropoietin receptor)	-0.22	1.47	1.33	enough cells to score
11	Nsdhl (NAD(P) dependent steroid dehydrogenase-like)	-0.25	1.63	1.18	enough cells to score
12	Gpx3 (glutathione peroxidase 3)	1.98	2.06	1.72	enough cells to score
13	Aoc1l3 (amine oxidase copper containing 1-like 3)	1.61	1.67	1.38	enough cells to score
14	Ltk (leukocyte tyrosine kinase)	1.45	1.85	1.56	enough cells to score
15	Ublcp1 (ubiquitin-like domain containing CTD phosphatase 1)	0.26	1.54	1.98	enough cells to score
16	Nnmt (nicotinamide N-methyltransferase)	-0.71	1.35	1.32	enough cells to score
17	Ccne2 (cyclin E2)	0.3	1.42	1.42	enough cells to score
18	Rgs13 (regulator of G-protein signaling 13)		1.36	1.25	fewer than 50 cells per well; well left out of scoring
19	Efemp1	1.64	1.73	1.56	enough cells to score
20	Pdhb (pyruvate dehydrogenase (lipoamide) beta)	1.83	1.85	1.51	enough cells to score
21	Gnao1 (guanine nucleotide binding protein, alpha O)	1.23	1.67	1.77	enough cells to score
22	Gemin5 (gem nuclear organelle associated protein 5)	-0.66	1.46	1.41	enough cells to score
23	Zp3 (zona pellucida glycoprotein 3)	-0.09	1.58	1.51	enough cells to score
24	Ncf1 (neutrophil cytosolic factor 1)	-1.09	1.3	1.21	enough cells to score
25	Vmn1r59 (vomeronasal 1 receptor 59)	-0.1	1.39	1.2	enough cells to score
26	Zfp398 (zinc finger protein 398)	0.99	1.71	1.58	enough cells to score
27	Bcl2l2 (BCL2-like 2)	-0.12	1.58	1.61	enough cells to score
28	Stac2 (SH3 and cysteine rich domain 2)	-0.18	1.59	1.48	enough cells to score
29	Stmn1 (stathmin 1)	0.37	1.44	1.77	enough cells to score
30	Cyp3a11 (cytochrome P450, family 3, subfamily a, polypeptide 11)	0.31	1.56	1.91	enough cells to score
31	Rgp1 (RAB6A GEF compex partner 1)	1.37	1.59	1.77	enough cells to score
32	Pxmp4 (peroxisomal membrane protein 4)	-0.09	1.35	1.22	enough cells to score
33	Ctdp1 (CTD phosphatase subunit 1)	0.35	1.48	1.46	enough cells to score
34	Clca1 (chloride channel accessory 1)	-1	1.43	1.63	enough cells to score
35	Pde8a (phosphodiesterase 8A)	-0.48	1.4	1.29	enough cells to score
36	Gbp9 (guanylate-binding protein 9)		1.22	1.15	fewer than 50 cells per well; well left out of scoring
37	Idnk (IDNK gluconokinase)	1.78	1.59	1.7	enough cells to score
38	Jrkl (Jrk-like)	0.56	1.73	1.67	enough cells to score
39	Rpe65 (retinal pigment epithelium 65)	-0.13	1.56	1.44	enough cells to score
40	Mdk (midkine)	0.37	1.41	1.39	enough cells to score
